Measurements as given in doi:10.1101/2024.06.27.600786.
No constants are given. Whether binding was seen depends on the method and setting. In cells and extracts the contact can be indirect. Some results given as binding are weak or reduced against the parent protein; the word gives no strength. Sequences can lack the tags named with a protein.

The chains behind the UniProt entries cited, without tags or fusion partners.
UniProt P51807: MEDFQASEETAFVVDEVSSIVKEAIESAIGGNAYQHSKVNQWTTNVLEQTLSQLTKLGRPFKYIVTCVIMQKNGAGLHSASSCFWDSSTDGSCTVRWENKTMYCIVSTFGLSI

B1: WDR60 (protein, UniProt Q8C761 1-999)
chain: MEPGKRRTKDDTWKADDLRKHLKVQSGSPKEEKKLREKKAHKDSESAAPEYREHKSRDPDREARHKEKTAERDLYTSTEHPRGERDRERHKERRKDAKDREKDKLKERHRDQEAEKAHSRGKDREREKDRRARKEEIRQSMAYHDLLSRDMRGRQMAEKVEKKASKIRTEERERRDEDSERIDEDRERRYRERKLQYGDSKEHPLSYWLYKEDGEKKHRKAKDADREKRLREKSSMREKRERHAREKGSSLSDREVEDRHREKRHKEGLHYDDERRRSHADKKERSSKEEHKKRELKELEKEDNDLEATGPDEYLPNLEDDFVDYEDDFEVCDGDDDSNNEHEAREKAEELPLAQKREIQEIQKAISAENERVGELSLKMFQKQGWTEYTKEPWTDANDSPSRTPVCGIFVDFATASHRQKSRSQALKQKTRSSKLLRLIDLDFSFTFSLLDLPPVNEYDMYIRNFGKKNTKQAYVQYNEDNVERDIQTEDIETREVWTQHPGEGTAVSGGSEEKDFSDVTVVPKIDTPRLANFLRAACQVVAVLLEEDRLAAGPSWIPRAQDKALNISDSSSQLNTSLPFLQSRKVSCLHASRVQRQTVVSVHDLPEKAFAPSLDSRHLLCVWDIWQPSGPQKVLICESKVTCCCFSPLKAFLLFAGTVHGSVVVWDLREDSRIHHYVRLSNCFWAFRTPTFSTDGILTSVNHRSPLQAIEPVATSAYKKQSFVLSPFSTQEEMAGLSFHIASLDETGVLNVWVVVELPKADISGSMSDLGLIPGGRIKLVHSTVIQLGNSLSHKDSELWGSTQTLSVKFLPSDPNHFVVGTDMGLISHSTRQDWRVSPRVFKPEQHGVRPIKVNVIDFSPFEETVFLAGCSDGSIRLHQLTSERPIMQWDNSTSGHAVTSLQWSPTRPAVFLVQDDASRIYVWDLLENDLGPVAQQPISPDKLVAMTIVGEPEKTSGSFVALVLARTSGTVDVQNLKRRWTTPAVDEHSQLRLLLQK
B2: WDR34 (protein, UniProt Q5U4F6 1-537)
chain: MAMCASPRPFRRVGSAGAAALAAGGAGGAERRGRPAPLQDETLGVASVPSQWRSVQGIRGETKSCQTAGIATAESSAQARTHADAQVQTEAPEEPAAMAPVSQYDTLRLEAFLRRVEAMVIRELNNNWQSHAFDGYEVNWTEQQQTVSCLHTLVYPLAQGQGLHVTGISWNSTGSVLACAYGRLDDGDWSTLKSYVCTWNLDRQGLNPQQPSVVVEVPSAVMCLAFHPTQPSHIAGGLYSGEVLVWDMSRPEDPLLWRTGLTDDTHTDPVYQVLWLPEPRHSHRFQVLSAATDGKVLLWRGSGAGQLRLTKGFALAVQQLPRSTKLKKPPRGETEVGVTSVAFSSFDSSLFVLGTEGGFPLKCSLASEVAALTRMPSSVPLRAPVQFTFSPHGGPVYSVSCSPFHRNLFLSAGTDGHVHLYSMLQAQPLTSLQLSHKYLFAVRWSPVRPLVFAAASGEGDVQLFDLQKSSQKPTVSITQTQDGSPVYCLEFNSQQTQLLAAGDAKGMVKVWQLSTAFTEQGPREVEDLDQLEAEITT
B3: WDR63 (protein, UniProt B2RY71 1-923)
chain: MAPKPPKSPKGQKKGKKNMKQQLLVPEEEEPMNMESMGHPEIYPLVLTTKTQEIFNCRVDEDMTDEQTYKLIKKEDILADLQNRAAVSDFHPVKKIVREYPGEELLLVYDKDFKYGLNFYLIGTEDGKENFLKPPEVPEEQEEPKEHVQEDVYVYNPPVSKPWVSLGSEKEIEEESVQESGKRVTYMISRKRSEFGAPVTFSDQNASSVKDAYIECTSYPEKNYTLSQVEKDVGLQVIAEVKDTSTQTKWAFPKNATTQYYPREFSEEEKSLIGKSKSLVDFFNNVSTSVEVALQQNEIMNTFIDDWKNLAEEESTFGDKTDTHLKEYQSFTDLHNTMEKMITCVSWHPTIFGLIVVSVAVRLSYEERVQNSGRLLLQPSLLLFWSFSDPIHPQLMLESPDDIFCFEFCPSDPNIIAGGCINGQIVLWDITAHADRIENIKTGGHRSKKTSLKPMFLLEPDSNKESMYIRHCAVSSIENGHRKVITDIHWLPDSFEINRMGSVFENRSGINCQLVTCSADCTICFWDIRPQKPAVTAAAAASAATTATNNANSQQSPVEKKKEENIDIPFDVPSTFLHLDLSWKPLSRLKLSKGDTSLDHCPTKLSLGEDPFLCKIQGTSSIHIILRDKMLSQIKMVKTSEINPYQNLEAGIANILKPIEDFCTKFFVGTEEGEVIYTDWKMERDSDTGRLMAKKPVSLYTVHDGAVHTIQRSPFFNDIVLTVGGWNVAIWKEEVMTGPLLQTCCGPKRYTAGHWSLTRPGVFYIGREDGNVDIWDLLEKTHEPAQSQNICITMITYIKPWTFSSKQQFIAVADYYGTLHILEIPWTLSHPSLNEVSSVNYYFEREVRHLEYVQQRKEIREQEKIDMALELVKKKAKIYQKTKEQMEAELKLEYESYLDLEKSVLFALGLSKVSEKKSYLDSH
B4: WDR78 (protein, UniProt E9PYY5 1-807)
chain: MHSSPTSTRKQASFAASASAQPRKSISFINPSKSSAGKGYAASNPNKLAVSRTMGFLTDMKPAEKLNVPSAKTVQVLDSKGVDVTPRPLYHPDPHAASAKPNKLLTSQEGSLGSDYISSYSLYQNTLNPSMLGQYTRSVLGSSSVSKSSISTTESMSEDLEDSSYKRDRLASFTDVRVLRSTAEAAISKEELEKTIEIILTETETLRFFDLPTVMFSTESEEAEKIIEKNKKYETLCRNRLGNDLYVERMMQTFNGAPKNKEVQCEKIILEEKGVVATTWDLYDSYNIPETLLAAKRSGYSSKGSLPAKDRDPKIQDSESSSLMDIENVILAKVQEDEEDNSEAILKSDKLHQDLFYMERVLMENVFQPKLAAYRQLPVYKEHEPEEPEETLQVENLKVAEDEPKKEDEEEVEMELELEIATEQSTIPANLERLWSFSCDLTKGLNVSSLSWNKANPDLLAVGYGNFGFREQKKGMACCWSIKNPMWPERIYQSSYGVTSVDFSNSSPNLLAVGYHNGTVAIYNVQSSHNIPVLDSSESPQKHLGPVWQVQWIEQDRGTTGDDKREILVSISADGRISKWIIRKGLDCHDLMRLKRTTATGGKKGGEKEKKGEALISRQAPGMCFAFHPKDTNIYLAGTEEGLIHKCSCSYNEQYLETYRGHKGPVYKVTWNPFCPDVFLSCSADWGVMIWHQDTVKPFLSFYPTTYVVYDVSWSPKSAYIFAAANENRVEIWDLQISTLDPLIVNVANPGIKFTTVLFAKETDCLLVGDSDGQVAVYELRNMPTASDTSRGDVINILLGPKTNHTG

biological target: T1, Tctex1 domain-containing 2 (TCTEX1D2), 3×FLAG knock-in (mouse) (UniProt Q9CQ66); assay: co-IP
T1 sequence: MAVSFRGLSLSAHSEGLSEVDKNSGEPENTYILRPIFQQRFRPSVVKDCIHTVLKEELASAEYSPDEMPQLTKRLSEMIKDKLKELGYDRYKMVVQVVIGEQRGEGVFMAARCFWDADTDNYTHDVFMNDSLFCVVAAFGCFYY

Molecule	binding
DYNLT1 (from UniProt P51807 1-113)	binds
B1	binds
B2	binds
B3	binds
B4	binds
